Measured values reported in US9926271B2, “Octahydrocyclopentapyrroles, their preparation and use” (The Trustees of Columbia University in the City of New York, priority 2013, dated 2018).
Some results were stated once for a whole list of compounds, not compound by compound.

Tests used:
[1] = biological target: RBP4-TTR interaction (Homo sapiens, UniProt P02753); assay: TR-FRET (HTRF) assay for retinol-induced RBP4-TTR interaction; assay type: biochemical; set-up: human RBP4 fragment (amino acids 19-201); host or cells: Gold(DE3)pLysS E. coli strain (Stratagene), pMAL-c4x vector; settings: in vitro
Excerpt: TR-FRET Assay for Retinol-Induced RBP4-TTR Interaction
Binding of a desired RBP4 antagonist displaces retinol and induces hindrance for RBP4-TTR interaction resulting in the decreased FRET signal (FIG. 7). Bacterially expressed MBP-RBP4 and untagged TTR were used in this assay. […] Following cell lysis, recombinant RBP4 was purified from the soluble fraction using the ACTA FPLC system (GE Healthcare) equipped with the 5-ml the MBP Trap HP column. Human untagged TTR was purchased from Calbiochem. Untagged TTR was labeled directly with Eu^3+ Cryptate-NHS using the HTRF Cryptate Labeling kit from CisBio following the manufacturer's recommendations. HTRF assay was performed in white low volume 384 well plates (Greiner-Bio) in a final assay volume of 16 μl per well. The reaction buffer contained 10 mM Tris-HCl pH 7.5, 1 mM DTT, 0.05% NP-40, 0.05% Prionex, 6% glycerol, and 400 mM RE. […] Titration of test compounds in this assay was conducted in the presence of 1 μM retinol. All reactions were assembled in the dark under dim red light and incubated overnight at +4° C. wrapped in aluminum foil. TR-FRET signal was measured in the SpectraMax M5e Multimode Plate Reader (Molecular Device). Fluorescence was excited at 337 nm and two readings per well were taken: Reading 1 for time-gated energy transfer from Eu(K) to d2 (337 nm excitation, 668 nm emission, counting delay 75 microseconds, counting window 100 microseconds) and Reading 2 for Eu(K) time-gated fluorescence (337 nm excitation, 620 nm emission, counting delay 400 microseconds, counting window 400 microseconds). The TR-FRET signal was expressed as the ratio of fluorescence intensity: Flu665/Flu620×10,000.

[2] = biological target: RBP4 (Homo sapiens, UniProt P02753); assay: Scintillation proximity RBP4 binding assay (SPA); set-up: Untagged human RBP4 purified from urine of tubular proteinuria patients; purchased Fitzgerald Industries International; host or cells: urine of tubular proteinuria patients; settings: in vitro
Method: Scintillation Proximity RBP4 Binding Assay
Untagged human RBP4 purified from urine of tubular proteinuria patients was purchased from Fitzgerald Industries International. It was biotinylated using the EZ-Link Sulfo-NHS-LC-Biotinylation kit from Pierce following the manufacturer's recommendations. Binding experiments were performed in 96-well plates (OptiPlate, PerkinElmer) in a final assay volume of 100 μl per well in SPA buffer (1×PBS, pH 7.4, 1 mM EDTA, 0.1% BSA, 0.5% CHAPS). The reaction mix contained 10 nM ^3H-Retinol (48.7 Ci/mmol; PerkinElmer), 0.3 mg/well Streptavidin-PVT beads, 50 nM biotinylated RBP4 and a test compound. Nonspecific binding was determined in the presence of 20 μM of unlabeled retinol. The reaction mix was assembled in the dark under dim red light. The plates were sealed with clear tape (TopSeal-A: 96-well microplate, PerkinElmer), wrapped in the aluminum foil, and allowed to equilibrate 6 hours at room temperature followed by overnight incubation at +4° C. Radiocounts were measured using a TopCount NXT counter (Packard Instrument Company).

| Compound | antagonism of retinol-dependent RBP4-TTR interaction (HTRF), result in words [1] | RBP4 binding (SPA), result in words [2] |
| --- | --- | --- |
| O=C(c1nc[nH]n1)N1C[C@H]2C[C@@H](c3ccccc3C(F)(F)F)C[C@H]2C1 [Compound 18, (1H-1,2,4-Triazol-3-yl)((3aR,5R,6aS)-5-(2-(trifluoromethyl)phenyl)hexahydrocyclopenta[c]pyrrol-2(1H)-yl) methanone] | antagonized retinol-dependent RBP4-TTR interaction | binded to RBP4 |
| O=C(c1nnc2n1CCOC2)N1C[C@H]2C[C@@H](c3ccccc3C(F)(F)F)C[C@H]2C1 [Compound 20, (6,8-Dihydro-5H-[1,2,4]triazolo[3,4-o][1,4]oxazin-3-yl)((3aR,5R,6aS)-5-(2-(trifluoromethyl)phenyl)hexahydrocyclopenta[C]pyrrol-2(1H)-yl)methanone] | antagonized retinol-dependent RBP4-TTR interaction | binded to RBP4 |
| COc1ccc2nnc(C(=O)N3C[C@H]4C[C@@H](c5ccccc5C(F)(F)F)C[C@H]4C3)n2c1 [Compound 21, (6-Methoxy-[1,2,4]triazolo[4,3-a]pyridin-3-yl)((3aR,5R,6aS)-5-(2-(trifluoromethyl)phenyl)hexahydrocyclopenta[c]pyrrol-2(1H)-yl)methanone] | antagonized retinol-dependent RBP4-TTR interaction | binded to RBP4 |
| O=C(c1nnc2ccc(Cl)cn12)N1C[C@H]2C[C@@H](c3ccccc3C(F)(F)F)C[C@H]2C1 [Compound 22, (6-Chloro-(1,2,4)triazolo[4,3-a]pyridin-3-yl)((3aR,5R,6aS)-5-(2-(trifluoromethyl)phenyl)hexahydrocyclopenta[c]pyrrol-2(1H)-yl)methanone] | antagonized retinol-dependent RBP4-TTR interaction | binded to RBP4 |
| O=C(c1nnc2ccc(C(F)(F)F)cn12)N1C[C@H]2C[C@@H](c3ccccc3C(F)(F)F)C[C@H]2C1 [Compound 23, (6-(Trifluoromethyl)-[1,2,4]triazolo[4,3-a]pyridin-3-yl)((3aR,5R,6aS)-5-(2-(trifluoromethyl)phenyl)hexahydrocyclopenta[c]pyrrol-2(1H)-yl)methanone] | antagonized retinol-dependent RBP4-TTR interaction | binded to RBP4 |
| CNC(=O)c1ccc2nnc(C(=O)N3C[C@H]4C[C@@H](c5ccccc5C(F)(F)F)C[C@H]4C3)n2c1 [Compound 27, N-Methyl-3-((3aR,5R,6aS)-5-(2-(trifluoromethyl)phenyl)octahydrocyclopenta[c]pyrrole-2-carbonyl)-[1,2,4]triazolo[4,3-a]pyridine-6-carboxamide] | antagonized retinol-dependent RBP4-TTR interaction | binded to RBP4 |
| CN(C)C(=O)c1ccc2nnc(C(=O)N3C[C@H]4C[C@@H](c5ccccc5C(F)(F)F)C[C@H]4C3)n2c1 [Compound 28, N,N-Dimethyl-3-((3aR,5R,6aS)-5-(2-(trifluoromethyl)phenyl)octahydrocyclopenta[c]pyrrole-2-carbonyl)-[1,2,4]triazolo[4,3-a]pyridine-6-carboxamide] | antagonized retinol-dependent RBP4-TTR interaction | binded to RBP4 |
| CNC(=O)Nc1ccc2nnc(C(=O)N3C[C@H]4C[C@@H](c5ccccc5C(F)(F)F)C[C@H]4C3)n2c1 [Compound 29, 1-Methyl-3-(3-((3aR,5R,6aS)-5-(2-(trifluoromethyl)phenyl)octahydrocyclopenta[c]pyrrole-2-carbonyl)-[1,2,4]triazolo[4,3-a]pyridin-6-yl)urea] | antagonized retinol-dependent RBP4-TTR interaction | binded to RBP4 |
| CN(C)C(=O)Nc1ccc2nnc(C(=O)N3C[C@H]4C[C@@H](c5ccccc5C(F)(F)F)C[C@H]4C3)n2c1 [Compound 30, 1,1-Dimethyl-3-(3-((3aR,5R,6aS)-5-(2-(trifluoromethyl)phenyl)octahydrocyclopenta[c]pyrrole-2-carbonyl)-[1,2,4]triazolo[4,3-a]pyridin-6-yl)urea] | antagonized retinol-dependent RBP4-TTR interaction | binded to RBP4 |
| NC(=O)c1ccc2nnc(C(=O)N3C[C@H]4C[C@@H](c5ccccc5C(F)(F)F)C[C@H]4C3)n2c1 [Compound 33, 3-((3aR,5R,6aS)-5-(2-(Trifluoromethyl)phenyl)octahydrocyclopenta[c]pyrrole-2-carbonyl)-[1,2,4]triazolo[4,3-a]pyridine-6-carboxamide] | antagonized retinol-dependent RBP4-TTR interaction | binded to RBP4 |
| O=C(c1nnc2cc(C(F)(F)F)ccn12)N1C[C@H]2C[C@@H](c3ccccc3C(F)(F)F)C[C@H]2C1 [Compound 34, (7-(Trifluoromethyl)-[1,2,4]triazolo[4,3-a]pyridin-3-yl)((3aR,5R,6aS)-5-(2-(trifluoromethyl)phenyl)hexahydrocyclopenta[c]pyrrol-2(1H)-yl)methanone] | antagonized retinol-dependent RBP4-TTR interaction | binded to RBP4 |
| O=C(c1ncccn1)N1C[C@H]2C[C@@H](c3ccccc3C(F)(F)F)C[C@H]2C1 [Compound 36, Pyrimidin-2-yl((3aR,5R,6aS)-5-(2-(trifluoromethyl)phenyl)hexahydrocyclopenta[c]pyrrol-2(1H)-yl)methanone] | antagonized retinol-dependent RBP4-TTR interaction | binded to RBP4 |
| O=C(c1cccnn1)N1C[C@H]2C[C@@H](c3ccccc3C(F)(F)F)C[C@H]2C1 [Compound 37, Pyridazin-3-yl((3aR,5R,6aS)-5-(2-(trifluoromethyl)phenyl)hexahydrocyclopenta[c]pyrrol-2(1H)-yl)methanone] | antagonized retinol-dependent RBP4-TTR interaction | binded to RBP4 |
| O=C(c1cnccn1)N1C[C@H]2C[C@@H](c3ccccc3C(F)(F)F)C[C@H]2C1 [Compound 38] | antagonized retinol-dependent RBP4-TTR interaction | binded to RBP4 |
| O=C(c1cn2nc(N3CCOCC3)ccc2n1)N1C[C@H]2C[C@@H](c3ccccc3C(F)(F)F)C[C@H]2C1 [Compound 39, (6-Morpholinoimidazo[1,2-b]pyridazin-2-yl)((3aR,5R,6aS)-5-(2-(trifluoromethyl)phenyl)hexahydrocyclopenta[c]pyrrol-2(1H)-yl)methanone] | antagonized retinol-dependent RBP4-TTR interaction | binded to RBP4 |
| O=C(c1n[nH]c2ncccc12)N1C[C@H]2C[C@@H](c3ccccc3C(F)(F)F)C[C@H]2C1 [Compound 41, (1H-Pyrazolo[3,4-b]pyridin-3-yl)((3aR,5R,6aS)-5-(2-(trifluoromethyl)phenyl)hexahydrocyclopenta[c]pyrrol-2(1H)-yl)methanone] | antagonized retinol-dependent RBP4-TTR interaction | binded to RBP4 |
| CC(=O)N1CCc2c(C(=O)N3C[C@H]4C[C@@H](c5ccccc5C(F)(F)F)C[C@H]4C3)n[nH]c2C1 [Compound 42, 1-(3-((3aR,5R,6aS)-5-(2-(Trifluoromethyl)phenyl)octahydrocyclopenta[c]pyrrole-2-carbonyl)-4,5-dihydro-1H-pyrazolo[3,4-c]pyridin-6(7H)-yl)ethanone] | antagonized retinol-dependent RBP4-TTR interaction | binded to RBP4 |
